Results as given in the supplement of paper PMC10032668.
The list shows a part of the results. The list holds hits alone, and they repeat only in part.

Amino acid sequences for entries named in this document (tags omitted).
COX6C, P09669, UniProt P09669, whole entry: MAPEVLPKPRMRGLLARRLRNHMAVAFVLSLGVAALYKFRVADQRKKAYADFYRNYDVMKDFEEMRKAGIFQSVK
MSN, P26038, UniProt P26038, whole entry: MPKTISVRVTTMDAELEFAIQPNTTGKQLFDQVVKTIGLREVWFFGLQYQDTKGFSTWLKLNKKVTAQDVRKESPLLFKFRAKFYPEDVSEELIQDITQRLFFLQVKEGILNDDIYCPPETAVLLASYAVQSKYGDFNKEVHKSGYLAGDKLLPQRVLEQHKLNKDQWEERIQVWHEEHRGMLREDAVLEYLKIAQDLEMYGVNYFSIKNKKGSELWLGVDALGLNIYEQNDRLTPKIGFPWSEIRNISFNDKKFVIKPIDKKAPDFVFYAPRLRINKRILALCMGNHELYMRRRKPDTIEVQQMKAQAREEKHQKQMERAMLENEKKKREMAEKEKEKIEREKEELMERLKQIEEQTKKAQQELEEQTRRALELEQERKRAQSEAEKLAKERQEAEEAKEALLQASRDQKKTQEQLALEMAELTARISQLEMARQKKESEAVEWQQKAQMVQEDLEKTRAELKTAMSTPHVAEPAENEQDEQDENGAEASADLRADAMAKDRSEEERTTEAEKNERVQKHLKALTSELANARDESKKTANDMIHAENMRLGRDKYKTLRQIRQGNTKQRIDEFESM
SNRPD2, P62316, UniProt P62316, whole entry: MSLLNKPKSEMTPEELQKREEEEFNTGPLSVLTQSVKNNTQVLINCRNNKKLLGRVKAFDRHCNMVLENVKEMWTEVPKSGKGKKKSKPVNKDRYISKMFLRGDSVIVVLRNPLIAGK
CD2AP, Q9Y5K6, UniProt Q9Y5K6, whole entry: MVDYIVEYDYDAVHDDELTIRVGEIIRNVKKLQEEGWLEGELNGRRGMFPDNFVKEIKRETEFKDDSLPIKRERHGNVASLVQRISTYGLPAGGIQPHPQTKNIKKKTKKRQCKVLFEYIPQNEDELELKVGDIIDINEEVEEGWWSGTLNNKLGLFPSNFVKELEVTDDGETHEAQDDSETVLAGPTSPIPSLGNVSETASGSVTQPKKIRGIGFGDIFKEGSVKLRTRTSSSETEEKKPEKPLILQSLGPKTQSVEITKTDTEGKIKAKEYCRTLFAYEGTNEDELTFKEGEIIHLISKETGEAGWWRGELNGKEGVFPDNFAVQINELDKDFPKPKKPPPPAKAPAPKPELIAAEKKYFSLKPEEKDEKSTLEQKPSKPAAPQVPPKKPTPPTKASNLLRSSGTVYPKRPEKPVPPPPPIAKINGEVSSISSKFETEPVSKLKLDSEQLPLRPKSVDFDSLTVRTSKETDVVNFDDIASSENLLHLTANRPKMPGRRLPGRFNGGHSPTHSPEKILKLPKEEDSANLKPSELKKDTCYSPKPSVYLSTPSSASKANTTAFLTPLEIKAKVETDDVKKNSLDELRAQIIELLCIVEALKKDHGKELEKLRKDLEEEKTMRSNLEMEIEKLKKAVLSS
CUL1, Q13616, UniProt Q13616, whole entry: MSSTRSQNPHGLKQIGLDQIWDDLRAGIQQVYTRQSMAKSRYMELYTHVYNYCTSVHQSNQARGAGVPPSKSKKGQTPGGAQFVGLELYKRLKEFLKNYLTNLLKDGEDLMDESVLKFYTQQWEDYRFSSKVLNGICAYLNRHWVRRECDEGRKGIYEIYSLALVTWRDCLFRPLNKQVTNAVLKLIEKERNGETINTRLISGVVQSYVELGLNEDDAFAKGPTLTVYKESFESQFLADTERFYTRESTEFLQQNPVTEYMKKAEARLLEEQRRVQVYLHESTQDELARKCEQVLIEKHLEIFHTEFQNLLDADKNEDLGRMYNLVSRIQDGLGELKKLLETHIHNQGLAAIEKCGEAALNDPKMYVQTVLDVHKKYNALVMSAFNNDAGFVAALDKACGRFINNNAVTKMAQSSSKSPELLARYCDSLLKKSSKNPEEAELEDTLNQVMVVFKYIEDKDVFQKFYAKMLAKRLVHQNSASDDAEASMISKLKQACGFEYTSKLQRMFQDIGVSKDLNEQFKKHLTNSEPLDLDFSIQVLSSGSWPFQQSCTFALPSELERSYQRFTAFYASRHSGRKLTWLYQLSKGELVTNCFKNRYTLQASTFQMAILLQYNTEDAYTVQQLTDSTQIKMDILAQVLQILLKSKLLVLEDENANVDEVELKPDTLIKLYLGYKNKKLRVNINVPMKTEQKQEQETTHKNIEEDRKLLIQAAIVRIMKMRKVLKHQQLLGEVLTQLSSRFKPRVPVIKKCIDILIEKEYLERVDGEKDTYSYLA
HAX1, O00165, UniProt O00165, whole entry: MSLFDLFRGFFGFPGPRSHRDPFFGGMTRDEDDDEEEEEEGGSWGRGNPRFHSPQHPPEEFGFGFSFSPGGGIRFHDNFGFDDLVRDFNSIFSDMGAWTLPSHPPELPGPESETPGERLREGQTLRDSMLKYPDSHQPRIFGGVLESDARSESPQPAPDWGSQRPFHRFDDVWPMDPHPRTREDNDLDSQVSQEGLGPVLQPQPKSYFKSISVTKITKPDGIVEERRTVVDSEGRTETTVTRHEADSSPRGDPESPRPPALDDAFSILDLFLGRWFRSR
HSPB1, P04792, UniProt P04792, whole entry: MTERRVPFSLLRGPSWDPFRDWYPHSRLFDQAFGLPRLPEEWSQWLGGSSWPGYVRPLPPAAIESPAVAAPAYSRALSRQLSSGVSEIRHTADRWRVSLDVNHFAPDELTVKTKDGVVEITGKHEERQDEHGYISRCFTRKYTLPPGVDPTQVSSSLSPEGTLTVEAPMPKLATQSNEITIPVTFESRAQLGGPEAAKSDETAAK
IPO8, O15397, UniProt O15397, whole entry: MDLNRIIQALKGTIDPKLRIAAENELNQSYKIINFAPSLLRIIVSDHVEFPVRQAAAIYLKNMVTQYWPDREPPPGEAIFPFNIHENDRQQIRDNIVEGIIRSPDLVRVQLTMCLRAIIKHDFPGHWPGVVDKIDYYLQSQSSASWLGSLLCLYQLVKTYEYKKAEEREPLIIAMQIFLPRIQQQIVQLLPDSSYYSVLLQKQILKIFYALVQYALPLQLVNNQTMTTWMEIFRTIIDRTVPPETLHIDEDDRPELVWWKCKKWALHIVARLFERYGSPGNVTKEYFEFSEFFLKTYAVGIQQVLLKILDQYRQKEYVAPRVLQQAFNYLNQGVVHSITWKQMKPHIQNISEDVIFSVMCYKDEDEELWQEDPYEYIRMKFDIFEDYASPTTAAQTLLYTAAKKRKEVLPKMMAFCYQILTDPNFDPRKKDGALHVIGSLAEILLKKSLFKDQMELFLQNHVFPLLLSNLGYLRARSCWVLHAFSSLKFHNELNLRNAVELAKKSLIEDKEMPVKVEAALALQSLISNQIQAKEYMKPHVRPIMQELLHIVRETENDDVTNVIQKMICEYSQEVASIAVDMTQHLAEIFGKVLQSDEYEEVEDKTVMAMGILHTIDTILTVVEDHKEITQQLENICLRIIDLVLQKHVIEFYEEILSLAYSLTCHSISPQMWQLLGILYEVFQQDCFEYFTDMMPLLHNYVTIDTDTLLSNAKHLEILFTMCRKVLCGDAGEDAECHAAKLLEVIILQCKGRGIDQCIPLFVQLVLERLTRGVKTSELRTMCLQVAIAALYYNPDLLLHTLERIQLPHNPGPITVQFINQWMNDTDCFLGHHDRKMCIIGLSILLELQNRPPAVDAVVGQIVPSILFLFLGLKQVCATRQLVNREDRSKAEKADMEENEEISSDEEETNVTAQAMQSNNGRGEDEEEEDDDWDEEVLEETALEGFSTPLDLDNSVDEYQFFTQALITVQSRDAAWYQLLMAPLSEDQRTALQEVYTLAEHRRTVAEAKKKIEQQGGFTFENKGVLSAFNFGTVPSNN
NCAPD2, Q15021, UniProt Q15021, whole entry: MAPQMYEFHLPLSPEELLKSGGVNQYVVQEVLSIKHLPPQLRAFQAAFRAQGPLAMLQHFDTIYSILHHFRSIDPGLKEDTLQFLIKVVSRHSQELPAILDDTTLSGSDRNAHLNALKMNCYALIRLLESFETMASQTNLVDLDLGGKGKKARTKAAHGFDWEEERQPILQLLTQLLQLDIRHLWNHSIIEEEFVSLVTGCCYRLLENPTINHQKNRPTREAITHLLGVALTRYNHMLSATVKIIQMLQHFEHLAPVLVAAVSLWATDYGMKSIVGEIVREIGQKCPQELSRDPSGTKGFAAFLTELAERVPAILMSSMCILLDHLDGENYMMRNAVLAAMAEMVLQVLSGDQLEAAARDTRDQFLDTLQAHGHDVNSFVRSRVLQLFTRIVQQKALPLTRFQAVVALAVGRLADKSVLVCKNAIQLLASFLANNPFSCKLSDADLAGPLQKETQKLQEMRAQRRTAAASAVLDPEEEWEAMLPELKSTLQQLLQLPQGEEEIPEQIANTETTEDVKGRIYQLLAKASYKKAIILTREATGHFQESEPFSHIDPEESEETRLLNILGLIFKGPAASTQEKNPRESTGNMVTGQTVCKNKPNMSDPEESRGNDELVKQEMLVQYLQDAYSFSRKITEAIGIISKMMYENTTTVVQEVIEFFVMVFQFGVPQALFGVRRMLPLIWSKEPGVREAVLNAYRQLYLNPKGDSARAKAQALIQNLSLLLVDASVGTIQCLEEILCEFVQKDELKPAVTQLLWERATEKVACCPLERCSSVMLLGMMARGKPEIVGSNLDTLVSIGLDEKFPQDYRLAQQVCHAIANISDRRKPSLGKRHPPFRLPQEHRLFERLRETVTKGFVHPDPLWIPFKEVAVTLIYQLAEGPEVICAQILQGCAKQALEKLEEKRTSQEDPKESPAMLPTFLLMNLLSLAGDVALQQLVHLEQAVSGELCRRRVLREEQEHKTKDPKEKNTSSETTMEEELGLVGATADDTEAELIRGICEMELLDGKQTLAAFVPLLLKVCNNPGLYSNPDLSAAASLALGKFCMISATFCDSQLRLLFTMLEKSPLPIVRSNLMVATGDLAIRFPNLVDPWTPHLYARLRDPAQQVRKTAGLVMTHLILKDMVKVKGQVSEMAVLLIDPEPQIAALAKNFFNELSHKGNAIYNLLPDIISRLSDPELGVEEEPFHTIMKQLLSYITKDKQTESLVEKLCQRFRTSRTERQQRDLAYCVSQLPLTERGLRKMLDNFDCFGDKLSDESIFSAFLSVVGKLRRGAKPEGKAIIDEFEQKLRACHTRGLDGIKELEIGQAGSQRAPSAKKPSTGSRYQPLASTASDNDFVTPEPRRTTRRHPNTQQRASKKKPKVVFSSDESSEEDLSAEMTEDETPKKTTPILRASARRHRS
POLR1E, Q9GZS1, UniProt Q9GZS1, whole entry: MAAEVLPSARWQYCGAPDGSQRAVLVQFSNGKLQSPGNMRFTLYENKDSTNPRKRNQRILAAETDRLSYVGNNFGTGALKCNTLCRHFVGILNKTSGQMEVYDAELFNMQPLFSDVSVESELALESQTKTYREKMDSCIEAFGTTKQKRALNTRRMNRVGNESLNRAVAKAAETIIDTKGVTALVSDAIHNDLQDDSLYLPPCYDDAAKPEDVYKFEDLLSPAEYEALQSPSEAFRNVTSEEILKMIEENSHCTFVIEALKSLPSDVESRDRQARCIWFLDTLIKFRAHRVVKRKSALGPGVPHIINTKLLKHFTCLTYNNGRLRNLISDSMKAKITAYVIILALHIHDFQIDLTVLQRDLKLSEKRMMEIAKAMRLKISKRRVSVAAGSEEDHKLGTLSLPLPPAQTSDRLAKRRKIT

Key:
Test in all cases: PRISMA enrichment of interactor (LFQ) in peptide spot vs all other peptide spots (log2 fold change); higher = stronger / more specific binding of the interactor to the peptide
ABCD3, P28288 = target: ABCD3, P28288
Experimental: (§1)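 PRISMA: 15-aa overlapping tiles (offset 8 aa) of 60 microproteins, plus SOS1/GLUT1 control peptides, were spot-synthesized on cellulose membranes in triplicate. Membranes were incubated with benzonase-treated HEK293T lysate, and bound proteins were identified by LC-MS/MS with LFQ. Enrichment is the log2 fold change of each protein in one spot versus all other spots. Only interactors passing the significance cutoff are listed.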

CIRBP, Q14011 = target: CIRBP, Q14011
Experimental: as §1

COX6C, P09669 = target: COX6C, P09669
Experimental: as §1

MSN, P26038 = target: MSN, P26038
Experimental: as §1

ORC2, Q13416 = target: ORC2, Q13416
Experimental: as §1

POU2F1, P14859 = target: POU2F1, P14859
Experimental: as §1

SNRPD2, P62316 = target: SNRPD2, P62316
Experimental: as §1

TBC1D10B, Q4KMP7 = target: TBC1D10B, Q4KMP7
Experimental: as §1

VPS52, Q8N1B4 = target: VPS52, Q8N1B4
Experimental: as §1

AATF, Q9NY61 = target: AATF, Q9NY61
Experimental: as §1

ACOT9, Q9Y305 = target: ACOT9, Q9Y305
Experimental: as §1

AMMECR1, Q9Y4X0 = target: AMMECR1, Q9Y4X0
Experimental: as §1

ASNS, P08243 = target: ASNS, P08243
Experimental: as §1

ATIC, P31939 = target: ATIC, P31939
Experimental: as §1

BCKDK, O14874 = target: BCKDK, O14874
Experimental: as §1

BIN1, O00499 = target: BIN1, O00499
Experimental: as §1

BRIX1, Q8TDN6 = target: BRIX1, Q8TDN6
Experimental: as §1

CAPZA1, P52907 = target: CAPZA1, P52907
Experimental: as §1

CBX4, O00257 = target: CBX4, O00257
Experimental: as §1

CC2D1A, Q6P1N0 = target: CC2D1A, Q6P1N0
Experimental: as §1

CD2AP, Q9Y5K6 = target: CD2AP, Q9Y5K6
Experimental: as §1

CHD1, O14646 = target: CHD1, O14646
Experimental: as §1

CHMP1A, Q9HD42 = target: CHMP1A, Q9HD42
Experimental: as §1

CPSF2, Q9P2I0 = target: CPSF2, Q9P2I0
Experimental: as §1

CUL1, Q13616 = target: CUL1, Q13616
Experimental: as §1

EXOC5, O00471 = target: EXOC5, O00471
Experimental: as §1

FANCI, Q9NVI1 = target: FANCI, Q9NVI1
Experimental: as §1

FBXO3, Q9UK99 = target: FBXO3, Q9UK99
Experimental: as §1

FKBP9, O95302 = target: FKBP9, O95302
Experimental: as §1

GATA6, Q92908 = target: GATA6, Q92908
Experimental: as §1

GRB2, P62993 = target: GRB2, P62993
Experimental: as §1

GTPBP10, A4D1E9 = target: GTPBP10, A4D1E9
Experimental: as §1

HAX1, O00165 = target: HAX1, O00165
Experimental: as §1

HSPB1, P04792 = target: HSPB1, P04792
Experimental: as §1

HSPH1, Q92598 = target: HSPH1, Q92598
Experimental: as §1

IPO8, O15397 = target: IPO8, O15397
Experimental: as §1

KLF16, Q9BXK1 = target: KLF16, Q9BXK1
Experimental: as §1

LYPLAL1, Q5VWZ2 = target: LYPLAL1, Q5VWZ2
Experimental: as §1

MOV10, Q9HCE1 = target: MOV10, Q9HCE1
Experimental: as §1

MRPL43, Q8N983 = target: MRPL43, Q8N983
Experimental: as §1

MRPL58, Q14197 = target: MRPL58, Q14197
Experimental: as §1

NCAPD2, Q15021 = target: NCAPD2, Q15021
Experimental: as §1

PKP2, Q99959 = target: PKP2, Q99959
Experimental: as §1

POLR1E, Q9GZS1 = target: POLR1E, Q9GZS1
Experimental: as §1

POLR2J3, Q9H1A7 = target: POLR2J3, Q9H1A7
Experimental: as §1

PPHLN1, Q8NEY8 = target: PPHLN1, Q8NEY8
Experimental: as §1

PPIG, Q13427 = target: PPIG, Q13427
Experimental: as §1

PWP1, Q13610 = target: PWP1, Q13610
Experimental: as §1

RNASEH1, O60930 = target: RNASEH1, O60930
Experimental: as §1

SLC25A22, Q9H936 = target: SLC25A22, Q9H936
Experimental: as §1

SUPT4H1, P63272 = target: SUPT4H1, P63272
Experimental: as §1

TMEM177, Q53S58 = target: TMEM177, Q53S58
Experimental: as §1

TXLNG, Q9NUQ3 = target: TXLNG, Q9NUQ3
Experimental: as §1

XPO4, Q9C0E2 = target: XPO4, Q9C0E2
Experimental: as §1

ZNF689 = target: ZNF689
Experimental: as §1

LKFTSMRGLECSLGR [SNHG8]
PRISMA enrichment of interactor (log2) (ABCD3, P28288): 5.55 | PRISMA enrichment of interactor (log2) (CIRBP, Q14011): 5.09 | PRISMA enrichment of interactor (log2) (COX6C, P09669): 4.4 | PRISMA enrichment of interactor (log2) (MSN, P26038): 5.47 | PRISMA enrichment of interactor (log2) (ORC2, Q13416): 5.36 | PRISMA enrichment of interactor (log2) (POU2F1, P14859): 3.88 | PRISMA enrichment of interactor (log2) (SNRPD2, P62316): 5.04 | PRISMA enrichment of interactor (log2) (TBC1D10B, Q4KMP7): 6.02 | PRISMA enrichment of interactor (log2) (VPS52, Q8N1B4): 7.7

EVPVPAPVAPARRP [SOS1_MUT_2]
PRISMA enrichment of interactor (log2) (AATF, Q9NY61): 6.39 | PRISMA enrichment of interactor (log2) (ACOT9, Q9Y305): 5.18 | PRISMA enrichment of interactor (log2) (AMMECR1, Q9Y4X0): 4.15 | PRISMA enrichment of interactor (log2) (ASNS, P08243): 6.01 | PRISMA enrichment of interactor (log2) (ATIC, P31939): 4.06 | PRISMA enrichment of interactor (log2) (BCKDK, O14874): 6.51 | PRISMA enrichment of interactor (log2) (BIN1, O00499): 4.27 | PRISMA enrichment of interactor (log2) (BRIX1, Q8TDN6): 4.56 | PRISMA enrichment of interactor (log2) (CAPZA1, P52907): 4.29 | PRISMA enrichment of interactor (log2) (CBX4, O00257): 4.38 | PRISMA enrichment of interactor (log2) (CC2D1A, Q6P1N0): 5.53 | PRISMA enrichment of interactor (log2) (CD2AP, Q9Y5K6): 6.6 | PRISMA enrichment of interactor (log2) (CHD1, O14646): 5.33 | PRISMA enrichment of interactor (log2) (CHMP1A, Q9HD42): 5.48 | PRISMA enrichment of interactor (log2) (CPSF2, Q9P2I0): 5.24 | PRISMA enrichment of interactor (log2) (CUL1, Q13616): 4.15 | PRISMA enrichment of interactor (log2) (EXOC5, O00471): 4.1 | PRISMA enrichment of interactor (log2) (FANCI, Q9NVI1): 9.97 | PRISMA enrichment of interactor (log2) (FBXO3, Q9UK99): 3.89 | PRISMA enrichment of interactor (log2) (FKBP9, O95302): 4.56 | PRISMA enrichment of interactor (log2) (GATA6, Q92908): 5.81 | PRISMA enrichment of interactor (log2) (GRB2, P62993): 5.7 | PRISMA enrichment of interactor (log2) (GTPBP10, A4D1E9): 9.77 | PRISMA enrichment of interactor (log2) (HAX1, O00165): 6.04 | PRISMA enrichment of interactor (log2) (HSPB1, P04792): 3.95 | PRISMA enrichment of interactor (log2) (HSPH1, Q92598): 5.87 | PRISMA enrichment of interactor (log2) (IPO8, O15397): 4.68 | PRISMA enrichment of interactor (log2) (KLF16, Q9BXK1): 4.18 | PRISMA enrichment of interactor (log2) (LYPLAL1, Q5VWZ2): 4.92 | PRISMA enrichment of interactor (log2) (MOV10, Q9HCE1): 5.15 | PRISMA enrichment of interactor (log2) (MRPL43, Q8N983): 5.1 | PRISMA enrichment of interactor (log2) (MRPL58, Q14197): 5.45 | PRISMA enrichment of interactor (log2) (NCAPD2, Q15021): 5.4 | PRISMA enrichment of interactor (log2) (PKP2, Q99959): 4.17 | PRISMA enrichment of interactor (log2) (POLR1E, Q9GZS1): 6.63 | PRISMA enrichment of interactor (log2) (POLR2J3, Q9H1A7): 8 | PRISMA enrichment of interactor (log2) (PPHLN1, Q8NEY8): 4.16 | PRISMA enrichment of interactor (log2) (PPIG, Q13427): 4.35 | PRISMA enrichment of interactor (log2) (PWP1, Q13610): 5.97 | PRISMA enrichment of interactor (log2) (RNASEH1, O60930): 5.78 | PRISMA enrichment of interactor (log2) (SLC25A22, Q9H936): 6 | PRISMA enrichment of interactor (log2) (SUPT4H1, P63272): 5.48 | PRISMA enrichment of interactor (log2) (TMEM177, Q53S58): 8.2 | PRISMA enrichment of interactor (log2) (TXLNG, Q9NUQ3): 5.51 | PRISMA enrichment of interactor (log2) (XPO4, Q9C0E2): 3.9 | PRISMA enrichment of interactor (log2) (ZNF689): 7.37
